The target of the assay is Flag-tagged full-length SIRT1 (UniProt Q96EB6). Nature of the assay: co-IP; Flag-SIRT1 overexpressed in HEK293 cells (control: pECE empty vector); whole-cell lysate incubated with anti-Flag M2 agarose overnight at 4°C in NETN buffer (50 mM Tris-HCl pH 8.0, 100 mM NaCl, 1 mM EDTA, 0.5% NP40); endogenous ATP6V1B2 detected by western blot.

Protein sequences, listed by entry. Tags and fused reporters are not part of them.
UniProt Q96EB6: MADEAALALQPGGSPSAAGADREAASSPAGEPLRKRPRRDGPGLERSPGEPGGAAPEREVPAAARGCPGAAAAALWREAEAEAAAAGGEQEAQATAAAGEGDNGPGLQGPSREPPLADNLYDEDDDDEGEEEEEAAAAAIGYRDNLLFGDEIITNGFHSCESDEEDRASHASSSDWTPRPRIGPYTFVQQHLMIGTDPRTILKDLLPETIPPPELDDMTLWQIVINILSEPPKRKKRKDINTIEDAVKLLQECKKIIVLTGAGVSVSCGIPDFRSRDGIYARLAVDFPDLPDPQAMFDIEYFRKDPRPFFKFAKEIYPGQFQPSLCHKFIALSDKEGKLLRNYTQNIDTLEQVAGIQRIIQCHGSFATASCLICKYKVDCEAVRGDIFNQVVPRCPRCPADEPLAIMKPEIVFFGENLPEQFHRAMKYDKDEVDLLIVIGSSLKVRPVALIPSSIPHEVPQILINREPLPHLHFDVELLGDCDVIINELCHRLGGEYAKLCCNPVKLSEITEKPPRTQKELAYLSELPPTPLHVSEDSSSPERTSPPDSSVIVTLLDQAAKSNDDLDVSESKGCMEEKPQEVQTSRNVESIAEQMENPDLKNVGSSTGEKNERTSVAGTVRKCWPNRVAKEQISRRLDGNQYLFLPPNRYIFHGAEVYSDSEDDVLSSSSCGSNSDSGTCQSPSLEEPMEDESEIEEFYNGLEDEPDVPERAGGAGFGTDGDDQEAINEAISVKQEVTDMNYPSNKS
UniProt P21281: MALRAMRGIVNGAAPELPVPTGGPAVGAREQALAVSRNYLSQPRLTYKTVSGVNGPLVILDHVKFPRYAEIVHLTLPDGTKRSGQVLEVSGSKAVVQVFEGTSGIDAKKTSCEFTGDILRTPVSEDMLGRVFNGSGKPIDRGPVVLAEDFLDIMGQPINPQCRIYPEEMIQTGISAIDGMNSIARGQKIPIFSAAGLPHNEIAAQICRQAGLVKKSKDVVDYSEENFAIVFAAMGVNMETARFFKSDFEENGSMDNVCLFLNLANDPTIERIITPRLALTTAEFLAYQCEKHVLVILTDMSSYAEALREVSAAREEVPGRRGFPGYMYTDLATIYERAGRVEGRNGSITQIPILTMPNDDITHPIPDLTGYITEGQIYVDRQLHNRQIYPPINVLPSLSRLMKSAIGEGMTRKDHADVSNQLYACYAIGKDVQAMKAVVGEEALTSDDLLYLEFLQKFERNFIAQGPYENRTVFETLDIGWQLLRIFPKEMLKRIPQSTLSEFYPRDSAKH

These are yes or no findings as the source states them, for the method shown. In cells and extracts the contact can be indirect. Some entries that bind do so weakly or less than the wild type.

Regarding “ATP6V1B2, B subunit of the vacuolar (H+)-ATPase (from UniProt P21281 1-511)”, the binding entry is “binds”.

The values are drawn from article PMC4503461.
